No constants are given. Whether binding was seen depends on the method and setting.
Biological target: T1, SlAOS (pGBKT7-SlAOS) (tomato (Solanum lycopersicum)) (UniProt K4BV52)
T1 sequence: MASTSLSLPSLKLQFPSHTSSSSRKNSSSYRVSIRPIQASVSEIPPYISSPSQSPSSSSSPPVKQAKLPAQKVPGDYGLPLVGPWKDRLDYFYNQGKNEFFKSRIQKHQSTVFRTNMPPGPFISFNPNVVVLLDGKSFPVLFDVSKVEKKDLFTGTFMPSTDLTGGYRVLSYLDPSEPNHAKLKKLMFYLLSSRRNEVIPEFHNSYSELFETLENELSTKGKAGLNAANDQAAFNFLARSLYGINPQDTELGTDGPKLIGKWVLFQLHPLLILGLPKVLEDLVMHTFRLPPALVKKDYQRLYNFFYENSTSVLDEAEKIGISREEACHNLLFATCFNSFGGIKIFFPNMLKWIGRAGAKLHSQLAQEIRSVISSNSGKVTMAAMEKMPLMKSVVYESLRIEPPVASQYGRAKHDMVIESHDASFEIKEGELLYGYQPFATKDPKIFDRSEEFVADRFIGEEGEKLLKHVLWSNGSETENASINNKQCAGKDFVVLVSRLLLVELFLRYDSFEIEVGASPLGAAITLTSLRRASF
Assay: two-hybrid; yeast AH109; pGADT7 fusion with pGBKT7 fusion; SD/-Leu/-Trp/-Ade/-His with 10 mM 3-AT (legend: 50 mM 3-AT), X-alpha-gal; 30 C, 3 days

Substance: SlWRKY75 (pGADT7-SlWRKY75) (from UniProt A0A3Q7GE34)
- binding: no binding

— article PMC12611961
